These are yes or no findings as the source states them, for the method shown. In cells and extracts the contact can be indirect. A result given as binding can be weak or reduced; the word gives no strength. Where a sequence is shown, tags or fusion partners need not be part of it.
Target: T1, GST-mCLN5 (mouse CLN5 lacking the signal sequence, aa 26-341, with N-terminal GST) (mouse) (UniProt Q3UMW8)
T1 sequence: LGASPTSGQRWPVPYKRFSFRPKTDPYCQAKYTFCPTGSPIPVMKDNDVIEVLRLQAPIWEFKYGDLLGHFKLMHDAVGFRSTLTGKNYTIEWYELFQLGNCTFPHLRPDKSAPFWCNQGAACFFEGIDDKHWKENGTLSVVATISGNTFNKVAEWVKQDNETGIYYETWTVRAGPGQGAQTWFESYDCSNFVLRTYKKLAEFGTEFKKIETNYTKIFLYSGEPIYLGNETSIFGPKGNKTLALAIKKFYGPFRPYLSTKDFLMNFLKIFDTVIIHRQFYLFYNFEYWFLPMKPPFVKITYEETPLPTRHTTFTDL
Assay: pull-down; GST-mCLN5 used to pull down endogenous NCL proteins from mouse brain extract; Western blot; only the target purified

Chains of the proteins cited; added tags and fusions are not shown. Lines headed by an entry give the natural chain unless they say otherwise; changes in a name come on top.
UniProt O89023: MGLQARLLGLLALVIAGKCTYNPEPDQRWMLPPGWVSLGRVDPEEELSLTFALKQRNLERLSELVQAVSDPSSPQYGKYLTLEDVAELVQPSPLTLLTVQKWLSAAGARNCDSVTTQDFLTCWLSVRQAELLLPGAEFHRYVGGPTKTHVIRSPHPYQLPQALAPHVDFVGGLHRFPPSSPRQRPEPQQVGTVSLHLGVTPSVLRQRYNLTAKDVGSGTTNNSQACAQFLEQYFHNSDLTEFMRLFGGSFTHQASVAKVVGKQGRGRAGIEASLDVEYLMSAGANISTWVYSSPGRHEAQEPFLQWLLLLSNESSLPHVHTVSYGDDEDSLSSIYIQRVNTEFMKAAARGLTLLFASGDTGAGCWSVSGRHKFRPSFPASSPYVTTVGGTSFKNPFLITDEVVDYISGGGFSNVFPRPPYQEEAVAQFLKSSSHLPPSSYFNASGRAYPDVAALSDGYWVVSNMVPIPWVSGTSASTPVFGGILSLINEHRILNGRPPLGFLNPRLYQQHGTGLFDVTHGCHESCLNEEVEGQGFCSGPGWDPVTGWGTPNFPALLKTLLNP

- binding: binds
Substance: CLN2/TPP1, endogenous in mouse brain (from UniProt O89023) (enzyme)

From paper PMC2790443
